# Test results reported in PubChem BioAssay AID445 (National Center for Advancing Translational Sciences (NCATS), 2006).
# The other results are listed elsewhere or left out. Shown are side measurements of this screen, not its main read-out; they come without a call. Most of these compounds were active or inconclusive in the main read-out, so they are no random draw. Words in brackets tell the shape of the fitted curve; partial curves, single points and poor fits give uncertain potencies.
# Test: IkB Signaling
# Details: ABC-DLBCL IkBa-CBG/CBR dual luciferase ratio (green luciferase fused to IkBa over red control in OCI-Ly3 lymphoma cells), 4 h
# How it was run: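 Luminescence ratio of IκBα-fused green versus native red beetle luciferase in OCI-Ly3 cells, 4 h post-doxycycline with compound; red signal alone, scaled from basal (0%) to zero light (-100%), flagged nonspecific or cytotoxic effects.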
# [1] = measured here: control luc red channel unless noted
# [2] = measured here: IkB-luc green channel
# [3] = measured here: control luc red channel
smiles,measurement,setting,value
COC(=O)c1sc2cccc(F)c2c1S(=O)(=O)NC(C)c1ccccc1 (centres undefined),AC50,[1],"7.94 µM [falling, full curve]"
CCc1ccc(NCc2cc3ccc(OC)cc3n(CC(=O)Nc3ccccc3OC)c2=O)cc1,AC50,[1],"12.6 µM [falling, partial curve]"
COC(=O)c1ccccc1NC(=O)Nc1cccnc1,AC50,[1],"12.6 µM [falling, partial curve]"
COc1ccc(S(=O)(=O)NCc2ccc(C(=O)N3CCN(c4ccccn4)CC3)cc2)cc1,AC50,[1],"20 µM [falling, single point]"
COc1ccc(OCc2nc(-c3ccc(OC)c(OC)c3)no2)cc1,AC50,[1],"0.0631 µM [falling, full curve, poor fit]"
CCN1CC2=C(OC(N)=C(C#N)C2c2cccs2)/C(=C/c2cccs2)C1 (centres undefined),AC50,[1],"31.6 µM [falling, partial curve]"
Cc1nnc(SCCc2ccccc2)[nH]c1=O,AC50,[1],"39.8 µM [falling, single point]"
O=C(CSc1nc2ccccc2[nH]1)c1cccs1,AC50,[1],"3.16 µM [falling, full curve]"
O=C(CCNc1ccc(F)cc1)c1ccco1,AC50,[1],"12.6 µM [falling, partial curve]"
COc1cccc(NC(=O)CSc2nnc3[nH]c(=O)cc(-c4ccccc4)n23)c1,AC50,[1],"12.6 µM [falling, partial curve, poor fit]"
CCOC(=O)C1CCCN(C(=O)c2ccc(C)c(NC(=O)c3nsc4ccccc34)c2)C1 (centres undefined),AC50,[1],"39.8 µM [falling, single point]"
Nc1c(S(=O)(=O)c2ccccc2)c2nc3ccccc3nc2n1/N=C/c1cccc(O)c1,AC50,[1],"3.16 µM [falling, full curve]"
Cc1ccc2cc(S(=O)(=O)NCCCC(=O)O)ccc2c1,AC50,[1],"10 µM [falling, partial curve]"
COc1ccc2c(c1)OCC1=C2CCC2(C)C(=O)CC=C12 (centres undefined),AC50,[1],"15.8 µM [falling, partial curve]"
Cc1ccc(C)c(-c2ccc(=O)n(C(C)C(=O)Nc3ccccc3C(F)(F)F)n2)c1 (centres undefined),AC50,[1],"31.6 µM [falling, single point]"
O=C(NC1CC(=O)N(c2cccc(F)c2)C1)c1ccc(S(=O)(=O)N2CCCCC2)cc1 (centres undefined),AC50,[1],"7.94 µM [falling, single point]"
Cc1ccc(OCC(=O)Nc2nnc(SCc3cc(=O)n4cc(C)ccc4n3)s2)cc1,AC50,[1],"1.58 µM [falling, full curve]"
CN(C)c1cccc(C(=O)Nc2ccc(-c3nc4ccccc4s3)cc2)c1,AC50,[1],"0.316 µM [rising, partial curve]"
O=C(CSc1nc2c(oc3ccccc32)c(=O)[nH]1)Nc1cccc(Cl)c1,AC50,[1],"12.6 µM [falling, partial curve]"
CCOC(=O)c1cccc(NC(=O)CCNS(=O)(=O)c2cccc3nonc23)c1,AC50,[1],"39.8 µM [falling, single point]"
Cc1ccc(CCNC(=O)c2ccc(CSCc3ccc(C)cc3)o2)cc1,AC50,[1],"25.1 µM [falling, single point]"
COc1ccc(-c2nc3scc(CCNS(=O)(=O)c4cccc(C(C)=O)c4)n3n2)cc1,AC50,[1],"10 µM [falling, partial curve]"
O=C1Nc2cc(Cl)ccc2Oc2cc(Oc3ccccc3)ccc21,AC50,[1],"1 µM [rising, full curve, poor fit]"
COCCn1c(-c2ccc(Cl)cc2)cnc1SCC(=O)NCc1cccs1,AC50,[2],"31.6 µM [falling, single point]"
same,AC50,[3],"15.8 µM [falling, partial curve]"
Cc1ccc(C)c(CN2C(=O)c3ccccc3S(=O)c3ccc(C(=O)NCc4ccco4)cc32)c1 (centres undefined),AC50,[1],"6.31 µM [falling, single point]"
Cc1ccc(NC(=O)Cn2cc(S(=O)(=O)NC(C)C)c(S(=O)(=O)NC(C)C)c2)cc1Cl,AC50,[1],"12.6 µM [falling, partial curve]"
COC(=O)c1c(SCC(=O)Nc2ccccc2OC)[nH]c2ccccc2c1=O,AC50,[1],"10 µM [falling, partial curve]"
Cc1cc2ccccc2n1-c1ccc(C(=O)N2CCC(C(=O)NCc3ccc(F)cc3)CC2)s1,AC50,[2],"0.0631 µM [rising, full curve]"
same,AC50,[3],"39.8 µM [falling, single point]"
COc1ccc(Oc2nc3c(c(=O)n(Cc4ccccc4Cl)c(=O)n3C)n2C)cc1,AC50,[1],"39.8 µM [falling, single point]"
Cc1ccc(C)c(N2CCN(C(=O)COc3cc(=O)n(C)c4ccccc34)CC2)c1,AC50,[1],"15.8 µM [falling, partial curve]"
Cc1c(Cl)cccc1NC(=O)CSc1cc(-c2ccccc2)ncn1,AC50,[1],"0.02 µM [falling, full curve, poor fit]"
Cc1ccc(-c2nnc(Nc3ccc(O)cc3)c3ccccc23)cc1S(=O)(=O)NCC1CCCO1 (centres undefined),AC50,[1],"10 µM [falling, partial curve]"
Cc1ccc(S(=O)(=O)Nc2ccc3c(c2)c(C(=O)OC(C)C)c(C)n3S(=O)(=O)c2ccc(C)cc2)cc1,AC50,[1],"0.158 µM [rising, full curve, poor fit]"
O=S(=O)(Nc1ccc(Br)cc1)c1ccc2nc(-c3ccccc3)[nH]c2c1,AC50,[1],"20 µM [falling, partial curve]"
O=C(CCC1N=C2c3ccccc3N=C(SCc3cccc(F)c3)N2C1=O)NCc1ccc(F)cc1 (centres undefined),AC50,[1],"39.8 µM [falling, single point]"
COc1ccccc1N=c1scc(-c2ccc3c(c2)NC(=O)CO3)n1CC1CCCO1 (centres undefined),AC50,[1],"15.8 µM [falling, partial curve]"
O=C1CC(N2CCCc3ccccc32)C(=O)N1c1ccccc1 (centres undefined),AC50,[1],"0.316 µM [falling, full curve]"
COc1ccc(C(=O)c2cn(Cc3cccc(C)c3)c3cc4c(cc3c2=O)OCCO4)cc1OC,AC50,[1],"39.8 µM [falling, single point]"
CCN(CC)CCNC(=O)Cn1ncc2c3ccccc3n(Cc3ccccc3C)c2c1=O,AC50,[1],"25.1 µM [falling, partial curve]"
COC(=O)c1ccccc1NC(=O)c1cc(=O)c2ccc(C)c(C)c2o1,AC50,[1],"39.8 µM [falling, single point]"
Cc1nnc2c3ccccc3nc(N3CCN(c4cccc(Cl)c4)CC3)n12,AC50,[1],"25.1 µM [falling, single point]"
Cc1cccc(-n2ncc3c(Nc4c(C)cc(C)cc4C)ncnc32)c1,AC50,[1],"31.6 µM [falling, single point]"
Oc1ccc(Nc2nc(-c3ccc(Cl)cc3)nc3ccccc23)cc1,AC50,[1],"25.1 µM [falling, single point]"
CCc1ccc(NC(=O)c2oc3c(c2C)-c2[nH]ncc2CC3)cc1,AC50,[1],"20 µM [falling, single point]"
CCc1ccc(NC(=O)c2ccc3c(c2)c(C)c(C)n3Cc2ccccc2)cc1,AC50,[1],"3.16 µM [rising, full curve]"
COc1ccc(NC(=O)c2cc(-c3cc(C)cc(C)c3O)n[nH]2)cc1Cl,AC50,[1],"3.16 µM [falling, full curve]"
COc1ccc(CCC(=O)NCc2nc3cccnc3n2Cc2ccc(OC)cc2)cc1,AC50,[1],"15.8 µM [rising, partial curve, poor fit]"
Cn1cc(S(=O)(=O)N2CCCCCC2)cc1C(=O)N1CCN(c2ccc(Cl)cc2)CC1,AC50,[1],"20 µM [falling, partial curve]"
Clc1ccc(CCNC(c2cccc(Cl)c2)c2nnc(-c3ccccc3)o2)cc1 (centres undefined),AC50,[1],"20 µM [falling, partial curve]"
Cc1nn(C)c2c1c(C(F)(F)F)cc(=O)n2C(C)C(=O)N1CCN(c2ccccc2)CC1 (centres undefined),AC50,[1],"20 µM [falling, partial curve]"
CC1=C(C(=O)Nc2ccccc2)C(c2ccccc2Cl)n2ncc(C(=O)Nc3cccc(C)c3)c2N1 (centres undefined),AC50,[1],"12.6 µM [falling, partial curve]"
CC(C)(C)OC(=O)N1CCC(c2c(C(=O)N3CCOCC3)cnn2-c2ccccc2Cl)CC1,AC50,[1],"0.00794 µM [falling, full curve, poor fit]"
COc1ccc(-c2nc(SCC(=O)Nc3cccc(C(C)=O)c3)n[nH]2)cc1,AC50,[1],"12.6 µM [falling, single point]"
O=C(Cc1ccccc1)Nc1cc(-c2nc3cc(Cl)ccc3o2)ccc1Cl,AC50,[1],"20 µM [falling, single point]"
COc1cccc(N(Cc2nnc3n2CCCCC3)C(=O)Nc2cccc(Cl)c2)c1,AC50,[1],"10 µM [rising, partial curve, poor fit]"
COC1=C(OC)c2ccccc2C(C(=O)O)N/C1=C(/C)Nc1ccncc1 (centres undefined),AC50,[1],"10 µM [falling, partial curve]"
O=C(NCC(c1cccs1)S(=O)(=O)c1cccs1)c1ccc(C(F)(F)F)cc1 (centres undefined),AC50,[1],"31.6 µM [falling, single point]"
CCOc1ccccc1NC(=O)N1CCCn2nc(C)cc21,AC50,[1],"3.16 µM [falling, partial curve]"
COc1ccc(N(C(=O)COc2ccc(Br)cc2)S(=O)(=O)c2ccc(C)cc2)cc1,AC50,[1],"6.31 µM [falling, partial curve]"
O=C(OCc1ccccc1Cl)c1ccc(-c2nnn(Cc3ccccc3Cl)n2)cc1,AC50,[1],"5.01 µM [rising, partial curve]"
CCCn1c(N2CCC(Cc3ccccc3)CC2)nc2c1c(=O)[nH]c(=O)n2C,AC50,[1],"25.1 µM [falling, single point]"
O=C(O)CCc1ccc(-c2ccccc2)n1-c1cccc(Br)c1,AC50,[1],"15.8 µM [falling, partial curve]"

# Part of the list above, with bars between the fields:
smiles | measurement | setting | value
Cc1ccc(C)c(CN2C(=O)c3ccccc3S(=O)c3ccc(C(=O)NCc4ccco4)cc32)c1 (centres undefined) | AC50 | [1] | 6.31 µM [falling, single point]
Cc1ccc(NC(=O)Cn2cc(S(=O)(=O)NC(C)C)c(S(=O)(=O)NC(C)C)c2)cc1Cl | AC50 | [1] | 12.6 µM [falling, partial curve]
Cc1c(Cl)cccc1NC(=O)CSc1cc(-c2ccccc2)ncn1 | AC50 | [1] | 0.02 µM [falling, full curve, poor fit]
CCc1ccc(NC(=O)c2ccc3c(c2)c(C)c(C)n3Cc2ccccc2)cc1 | AC50 | [1] | 3.16 µM [rising, full curve]
